Where “and” joins values, the source holds several entries; their conditions need not be identical. Equal values may be shown once. ± gives the standard deviation of the averaged measurements. Over roughly 1,600 compounds, “normalized growth (OD600, IQM-normalized) in LPM” has its median near 1; the lowest 2% begin near 0.014. The list shows a part of the results.
Tested on: Salmonella enterica serovar Typhimurium SL1344
Assay: normalized growth (OD600, IQM-normalized) in LPM (fraction of plate interquartile mean); higher = more bacterial growth (less inhibition)
Settings: LPM pH 5.8; 10 µM; 16 h

Row | Compound | normalized growth
1 | CC[C@]12CCCN3CCc4c(n(c5ccccc45)[C@@](O)(C(=O)OC)C1)[C@@H]32 | 0.962 ± 0.19
2 | CCC(C)(C)c1ccc(CC(C)CN2C[C@@H](C)O[C@@H](C)C2)cc1 (stereo partly specified) | 1.02 ± 0.017
3 | Nc1nc(N)nc(-c2cc(Cl)ccc2Cl)n1 | 1.02 ± 0.018
4 | CCN1CCCC1CNC(=O)c1cc(S(=O)(=O)CC)c(N)cc1OC (stereo unspecified) | 1 ± 0.02
5 | S=P(N1CC1)(N1CC1)N1CC1 | 1.12 ± 0.039
6 | CCCCOc1ccc(OCCCN2CCOCC2)cc1 | 0.817 ± 0.045
7 | CC1CCc2cc(F)cc3c(=O)c(C(=O)O)cn1c23 (stereo unspecified) | 0.0174 ± 0.0072
8 | CC(C)c1nc(CN(C)C(=O)N[C@H](C(=O)N[C@@H](Cc2ccccc2)C[C@H](O)[C@H](Cc2ccccc2)NC(=O)OCc2cncs2)C(C)C)cs1 | 0.886 ± 0.029
9 | COc1ccccc1OCCNCC(O)COc1cccc2[nH]c3ccccc3c12 (stereo unspecified) | 0.925 and 1.17
10 | CC(C)[C@H]1CC[C@H](C(=O)N[C@H](Cc2ccccc2)C(=O)O)CC1 | 0.939 ± 0.041
11 | CC(=O)Oc1cccc(C(=O)O)c1OC(C)=O | 0.912 ± 0.079
12 | CCn1cc(C(=O)O)c(=O)c2cc(F)c(N3CCNCC3)cc21 | 0.0247 ± 0.0053
13 | CCOC(=O)C1=C(C)NC(C)=C(C(=O)OC)C1c1cccc([N+](=O)[O-])c1 (stereo unspecified) | 1.1 ± 0.05
14 | CC1(C)S[C@@H]2[C@H](N3C(=O)[C@@H](c4ccccc4)NC3(C)C)C(=O)N2[C@H]1C(=O)O | 0.976 ± 0.053
15 | NS(=O)(=O)c1cc2c(cc1C(F)(F)F)NC(Cc1ccccc1)NS2(=O)=O (stereo unspecified) | 1.15 ± 0.013
16 | CC(CN1c2ccccc2Sc2ccccc21)N(C)C (stereo unspecified) | 1.06 ± 0.05
17 | O=C(c1ccc(OCCN2CCCCC2)cc1)c1c(-c2ccc(O)cc2)sc2cc(O)ccc12 | 0.973 ± 0.019
18 | Cc1onc(-c2ccccc2)c1C(=O)N[C@@H]1C(=O)N2[C@@H]1SC(C)(C)[C@@H]2C(=O)O | 0.999 ± 0.063
19 | CCCC(CCC)C(=O)O | 0.955 ± 0.071
20 | CN(C)CCCC1(c2ccc(F)cc2)OCc2cc(C#N)ccc21 (stereo unspecified) | 1.1 ± 0.062
21 | CNC(=O)c1c(I)c(NC(C)=O)c(I)c(C(=O)O)c1I | 0.957 ± 0.015
22 | CCC(=O)NCC[C@@H]1CCc2ccc3c(c21)CCO3 | 1.11 ± 0.046
23 | OCC(O)CN1CCN(c2ccccc2)CC1 (stereo unspecified) | 1.02 ± 0.095
24 | CC(O)CC(C)(C)O (stereo unspecified) | 1.058 ± 0.006
25 | COc1ccc2cc1Oc1ccc(cc1)C[C@H]1c3c(cc4c(c3Oc3cc5c(cc3OC)CCN(C)[C@@H]5C2)OCO4)CCN1C | 0.938 ± 0.024
26 | CCOC(=O)c1ccc(O)cc1 | 1.02 ± 0.045

Row | Compound | normalized growth
27 | Cc1c(OCC(F)(F)F)ccnc1C[S+]([O-])c1nc2ccccc2[nH]1 (stereo unspecified) | 1.054 ± 0.0058
28 | O=C([O-])C(O)[C@H](O)[C@@H](O)[C@H](O)[C@H](O)CO.O=C([O-])C(O)[C@H](O)[C@@H](O)[C@H](O)[C@H](O)CO.[Ca+2] (stereo partly specified) | 0.966 ± 0.061
29 | CC(C)(C)NCC(O)c1ccc(O)c(CO)c1 (stereo unspecified) | 0.99 ± 0.059
30 | CCC1(C)CC(=O)NC1=O (stereo unspecified) | 0.9521 ± 0.008
31 | NC1CCN(c2c(F)cc3c(=O)c(C(=O)O)cn(C4CC4)c3c2Cl)C1 (stereo unspecified) | 0.0132 ± 0.00024
32 | CC(=O)Nc1ccc(OC(C)=O)cc1 | 1.05 ± 0.08
33 | CC(NCCc1ccc(O)cc1)C(O)c1ccc(O)cc1 (stereo unspecified) | 0.839 ± 0.025
34 | CCCNC(C)(C)COC(=O)c1ccccc1 | 0.983 ± 0.027
35 | O=S(=O)(c1cccc2cnccc12)N1CCCNCC1 | 1.11 ± 0.028
36 | CCc1nn(CCCN2CCN(c3cccc(Cl)c3)CC2)c(=O)n1CCOc1ccccc1 | 0.96 ± 0.029
37 | CCOC(=O)CC(=O)N1CCSC1COc1ccccc1OC (stereo unspecified) | 1.07 ± 0.025
38 | CCC(C)(C)C(=O)O[C@H]1C[C@@H](C)C=C2C=C[C@H](C)[C@H](CC[C@@H]3C[C@@H](O)CC(=O)O3)[C@H]21 | 0.777 ± 0.071
39 | C[C@@H]1CN(c2c(F)c(F)c3c(=O)c(C(=O)O)cn(C4CC4)c3c2F)C[C@H](C)N1 | 0.0487 ± 0.0099
40 | CC(O)(CC(=O)O)CC(=O)O | 0.921 ± 0.018
41 | NNC(=O)c1ccncc1.Nc1ccc(C(=O)O)c(O)c1 | 0.825 ± 0.0087
42 | CCCc1nn(C)c2c(=O)[nH]c(-c3cc(S(=O)(=O)N4CCN(C)CC4)ccc3OCC)nc12 | 1.11 ± 0.04
43 | O=[N+]([O-])c1ccc(O)c2ncccc12 | 0.00762 ± 0.00015
44 | O=C1O[C@H]([C@@H](O)CO)C(O)=C1O | 0.957 ± 0.024
45 | Clc1ccc(C(c2ccccc2Cl)C(Cl)Cl)cc1 (stereo unspecified) | 1.03 ± 0.016
46 | OCCc1ccccc1 | 1.12 ± 0.033
47 | O=C(O)c1ccccc1Nc1cccc(C(F)(F)F)c1 | 0.9784 ± 0.0073
48 | CC(=O)Nc1ccc(S(=O)(=O)c2ccc(NC(C)=O)cc2)cc1 | 0.889 ± 0.067
49 | Nc1ccc(C(=O)O)c(O)c1 | 0.81 ± 0.048
50 | Nc1nc(/C(=C/CC(=O)O)C(=O)N[C@@H]2C(=O)N3C(C(=O)O)=CCS[C@H]23)cs1 | 0.154 ± 0.061
51 | CCC(=O)O[C@]1(C(=O)SCF)[C@H](C)C[C@H]2[C@@H]3C[C@H](F)C4=CC(=O)C=C[C@]4(C)[C@@]3(F)[C@@H](O)C[C@@]21C | 1.05 ± 0.04

Rewritten as tab-separated lines: entries from further up
Row	Compound	normalized growth
35	O=S(=O)(c1cccc2cnccc12)N1CCCNCC1	1.11 ± 0.028
36	CCc1nn(CCCN2CCN(c3cccc(Cl)c3)CC2)c(=O)n1CCOc1ccccc1	0.96 ± 0.029
37	CCOC(=O)CC(=O)N1CCSC1COc1ccccc1OC (stereo unspecified)	1.07 ± 0.025
38	CCC(C)(C)C(=O)O[C@H]1C[C@@H](C)C=C2C=C[C@H](C)[C@H](CC[C@@H]3C[C@@H](O)CC(=O)O3)[C@H]21	0.777 ± 0.071

Reference: the supplement of paper PMC6331611
